This is an account of results in PMC8844045, “Dynamic FMR1 granule phase switch instructed by m6A modification contributes to maternal RNA decay”.

The chains behind the UniProt entries cited, without tags or fusion partners.
UniProt Q9NFU0: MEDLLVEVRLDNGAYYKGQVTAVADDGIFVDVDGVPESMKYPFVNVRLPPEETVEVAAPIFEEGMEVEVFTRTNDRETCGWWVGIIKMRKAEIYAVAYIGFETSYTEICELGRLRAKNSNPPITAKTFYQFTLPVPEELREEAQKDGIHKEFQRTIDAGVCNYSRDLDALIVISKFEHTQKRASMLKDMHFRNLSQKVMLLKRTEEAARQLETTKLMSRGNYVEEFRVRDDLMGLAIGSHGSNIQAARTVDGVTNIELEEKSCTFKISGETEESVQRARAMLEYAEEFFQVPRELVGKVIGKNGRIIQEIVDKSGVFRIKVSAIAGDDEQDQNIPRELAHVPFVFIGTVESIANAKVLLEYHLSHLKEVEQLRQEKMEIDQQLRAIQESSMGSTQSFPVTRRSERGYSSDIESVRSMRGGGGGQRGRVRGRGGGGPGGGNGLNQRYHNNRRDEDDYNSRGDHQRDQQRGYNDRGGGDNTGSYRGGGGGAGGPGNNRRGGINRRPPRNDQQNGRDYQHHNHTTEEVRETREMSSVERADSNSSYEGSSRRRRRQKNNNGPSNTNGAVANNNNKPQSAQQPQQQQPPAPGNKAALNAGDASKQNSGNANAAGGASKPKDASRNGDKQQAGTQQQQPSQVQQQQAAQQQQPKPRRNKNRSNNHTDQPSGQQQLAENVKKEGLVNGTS
UniProt P21187: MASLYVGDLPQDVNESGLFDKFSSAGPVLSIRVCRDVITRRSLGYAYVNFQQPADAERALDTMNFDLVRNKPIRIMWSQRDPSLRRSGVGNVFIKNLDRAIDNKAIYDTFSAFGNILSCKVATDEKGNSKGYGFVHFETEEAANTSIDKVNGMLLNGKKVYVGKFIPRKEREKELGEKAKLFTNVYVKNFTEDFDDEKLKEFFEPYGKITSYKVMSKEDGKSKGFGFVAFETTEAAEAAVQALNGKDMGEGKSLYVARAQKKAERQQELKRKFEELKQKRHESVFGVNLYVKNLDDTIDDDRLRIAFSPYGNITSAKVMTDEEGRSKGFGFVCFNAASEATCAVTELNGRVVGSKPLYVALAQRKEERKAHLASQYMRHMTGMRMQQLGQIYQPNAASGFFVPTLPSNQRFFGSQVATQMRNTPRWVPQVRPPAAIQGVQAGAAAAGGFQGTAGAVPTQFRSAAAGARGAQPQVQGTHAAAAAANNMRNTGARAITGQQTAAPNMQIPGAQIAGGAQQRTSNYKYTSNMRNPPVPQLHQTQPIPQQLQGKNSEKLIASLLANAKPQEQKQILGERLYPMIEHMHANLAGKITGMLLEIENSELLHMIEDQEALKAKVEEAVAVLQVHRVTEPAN

The target of test [1] is Drosophila Fragile X mental-retardation protein (FMR1) (Drosophila (endogenous in embryos)) (UniProt Q9NFU0). The test can be described thus: SDD-AGE (semi-denaturing detergent agarose gel electrophoresis); crude extracts of wild-type embryos at 0–1, 2–4 and 5–6-h stages; 1.5% agarose gel with 0.1% SDS, immunoblot for FMR1; RNase A treatment of the 2–4-h lysate markedly reduced the high-molecular-weight signal. For orientation: Immunoblotting shows a protein as a band on a membrane.

For test [2] the target is unchanged. The experiment in a line: co-IP; total lysates of 2–4-h embryos (wild type; also mettl3–mettl14 double maternal mutants, where the association was markedly reduced) immunoprecipitated with anti-Drosophila FMR1 antibody or IgG, protein A/G agarose, 4 °C; western blot for pAbp.

Results are given in words; binding and its absence hold for the method and conditions named. For some assays here: Binding seen in cells or lysates may run through a third protein. Some entries that bind do so weakly or less than the wild type.

Turning to “Drosophila Fragile X mental-retardation protein (FMR1) (from UniProt Q9NFU0 1-684)”, the binding result in test [1] is given as “binds”. With “poly(A)-binding protein (pAbp) (from UniProt P21187 1-634)”, the binding result in test [2] is “binds”.
